Here are results for 1 substance from publication PMC7499972.

Chains of the proteins cited; added tags and fusions are not shown.
UniProt Q92731: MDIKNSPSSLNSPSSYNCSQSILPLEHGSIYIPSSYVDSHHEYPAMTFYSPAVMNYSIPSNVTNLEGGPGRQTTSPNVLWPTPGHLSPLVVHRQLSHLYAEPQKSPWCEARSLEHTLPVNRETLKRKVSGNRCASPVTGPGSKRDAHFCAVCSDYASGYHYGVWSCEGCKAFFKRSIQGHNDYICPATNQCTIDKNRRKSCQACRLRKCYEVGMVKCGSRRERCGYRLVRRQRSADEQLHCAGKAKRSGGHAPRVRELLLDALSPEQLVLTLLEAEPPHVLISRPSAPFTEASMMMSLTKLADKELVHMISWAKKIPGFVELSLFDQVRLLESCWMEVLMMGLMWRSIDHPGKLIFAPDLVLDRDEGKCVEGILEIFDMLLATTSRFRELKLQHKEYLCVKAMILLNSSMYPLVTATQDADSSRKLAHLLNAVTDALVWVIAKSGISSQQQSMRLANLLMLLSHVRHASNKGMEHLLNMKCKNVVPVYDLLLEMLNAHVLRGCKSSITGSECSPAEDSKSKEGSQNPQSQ

These are yes or no findings as the source states them, for the method shown. In cells and extracts the contact can be indirect. Some entries that bind do so weakly or less than the wild type. Where a sequence is shown, tags or fusion partners need not be part of it.

For the assay, the target named is T1, Flag-CLPTM1L (cleft lip and palate transmembrane 1-like), wild type, from pCMV-CLPTM1L (human) (UniProt Q96KA5).
T1 sequence: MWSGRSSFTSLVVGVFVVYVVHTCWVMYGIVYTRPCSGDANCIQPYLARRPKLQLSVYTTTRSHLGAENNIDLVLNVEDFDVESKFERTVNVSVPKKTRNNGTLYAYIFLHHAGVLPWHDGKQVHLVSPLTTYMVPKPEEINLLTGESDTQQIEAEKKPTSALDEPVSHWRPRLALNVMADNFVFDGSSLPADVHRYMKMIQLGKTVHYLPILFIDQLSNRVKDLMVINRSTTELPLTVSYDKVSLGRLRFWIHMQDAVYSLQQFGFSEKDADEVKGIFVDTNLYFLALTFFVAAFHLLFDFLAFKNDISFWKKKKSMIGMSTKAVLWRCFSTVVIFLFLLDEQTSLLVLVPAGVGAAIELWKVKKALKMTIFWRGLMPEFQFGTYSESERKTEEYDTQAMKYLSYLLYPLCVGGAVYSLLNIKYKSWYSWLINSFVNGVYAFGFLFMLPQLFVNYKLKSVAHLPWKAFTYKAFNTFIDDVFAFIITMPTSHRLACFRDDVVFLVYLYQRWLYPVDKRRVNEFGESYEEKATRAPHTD
Nature of the assay: co-IP; A549 cells transfected and exposed to 4 Gy IR; lysis buffer 50 mmol/L Tris-HCl pH 8.0, 100 mmol/L NaCl, 1% Nonidet P-40; anti-ERβ or anti-Flag antibody with protein G agarose beads; washed six times; western blot.

As for “Estrogen receptor β (ERβ) in A549 cells (from UniProt Q92731 1-530)”, the binding result is recorded as “binds”.
